According to patent US20050096392A1, “Use of creatine pyruvate for increasing stamina during highly intensive intermittent physical exertion” (priority 2002, published 2005):

System: lower arm musculature
Assay: Intermittent test with the lower arm musculature, blood tests and acid-base status
Assay type: in vivo, human
Protocol: In a double-blind study, creatine pyruvate (A) and placebo (B) were tested. The male experimental subjects (n=32; age: 18 to 32) were divided into groups, each of n=16, so that the maximum oxygen consumption per kilogram of body weight was on average the same in the groups, and the types of sport undertaken were usually distributed the same as far as possible. This led to the fact that the mean strength in the intermittent studies was not the same. The test subjects of group A were administered 5.0 g of creatine pyruvate per day over a period of 28 days. The initial test (IT) was carried out on the 1st day, and the closing test (CT) on the 29th day.
The arm of the seated test subjects is positioned extended (horizontally) at the side at shoulder height. The hand lies on an adjustable-weight gripper (stroke length: 3 cm). The arm is supported at the elbow. The test subjects must perform highly intensive intermittent work, for which they compress the adjustable-weight gripper at the maximum possible frequency. The weight in the basket is 80% of the maximum weight achieved in a preliminary test in which the load, starting at 7.5 kg, is increased by 2.5 kg every 3 minutes. The contraction frequency is 24/min. The maximum weight is reached when the 3 cm stroke length can no longer be overcome. Blood is taken from the cubital vein on the working arm. The skin blood flow is reduced by cooling. Blood was taken in each case before and after the 1st, 2nd, 6th, 9th and 10th period.

creatine pyruvate
HBO2 at the end of the interval pauses (in vivo): significantly lower
Blood parameters not associated with the acid-base status (initial test vs closing test): no significant difference
Absolute values of pH, pCO2, lactate and BE (initial vs closing test): no significant differences
Change of pCO2 during the working phase (initial vs closing test): tendency to be greater
Pooled pCO2 differences between measurements before and after intervals 2, 6, 9 and 10 (p<0.05): greater difference
